Our source for the binding values is PMC10802724.

Sequences of proteins named here, by UniProt entry; tags and fusion partners are left off. Residues count along the entry.
UniProt Q9UBV2, residues 22-794: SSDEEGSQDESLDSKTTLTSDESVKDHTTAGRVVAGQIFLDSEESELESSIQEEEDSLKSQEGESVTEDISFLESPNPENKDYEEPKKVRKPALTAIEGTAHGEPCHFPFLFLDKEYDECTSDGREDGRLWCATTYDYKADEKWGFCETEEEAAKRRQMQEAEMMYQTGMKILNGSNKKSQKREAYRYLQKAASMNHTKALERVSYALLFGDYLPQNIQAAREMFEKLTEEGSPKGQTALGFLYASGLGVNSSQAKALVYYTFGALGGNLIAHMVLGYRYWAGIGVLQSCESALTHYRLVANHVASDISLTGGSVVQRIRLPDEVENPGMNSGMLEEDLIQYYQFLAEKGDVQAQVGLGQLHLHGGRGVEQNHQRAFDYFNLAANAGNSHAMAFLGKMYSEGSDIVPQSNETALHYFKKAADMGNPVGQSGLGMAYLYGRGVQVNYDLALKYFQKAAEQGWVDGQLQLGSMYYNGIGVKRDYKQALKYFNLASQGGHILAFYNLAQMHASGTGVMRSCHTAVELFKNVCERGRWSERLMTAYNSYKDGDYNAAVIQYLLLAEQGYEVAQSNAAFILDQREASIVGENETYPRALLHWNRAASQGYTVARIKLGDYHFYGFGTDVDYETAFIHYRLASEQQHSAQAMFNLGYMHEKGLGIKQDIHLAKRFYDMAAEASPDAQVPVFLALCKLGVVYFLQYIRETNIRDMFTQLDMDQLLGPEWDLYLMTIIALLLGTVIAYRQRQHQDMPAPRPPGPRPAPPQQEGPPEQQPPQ
UniProt P48356, residues 22-1162: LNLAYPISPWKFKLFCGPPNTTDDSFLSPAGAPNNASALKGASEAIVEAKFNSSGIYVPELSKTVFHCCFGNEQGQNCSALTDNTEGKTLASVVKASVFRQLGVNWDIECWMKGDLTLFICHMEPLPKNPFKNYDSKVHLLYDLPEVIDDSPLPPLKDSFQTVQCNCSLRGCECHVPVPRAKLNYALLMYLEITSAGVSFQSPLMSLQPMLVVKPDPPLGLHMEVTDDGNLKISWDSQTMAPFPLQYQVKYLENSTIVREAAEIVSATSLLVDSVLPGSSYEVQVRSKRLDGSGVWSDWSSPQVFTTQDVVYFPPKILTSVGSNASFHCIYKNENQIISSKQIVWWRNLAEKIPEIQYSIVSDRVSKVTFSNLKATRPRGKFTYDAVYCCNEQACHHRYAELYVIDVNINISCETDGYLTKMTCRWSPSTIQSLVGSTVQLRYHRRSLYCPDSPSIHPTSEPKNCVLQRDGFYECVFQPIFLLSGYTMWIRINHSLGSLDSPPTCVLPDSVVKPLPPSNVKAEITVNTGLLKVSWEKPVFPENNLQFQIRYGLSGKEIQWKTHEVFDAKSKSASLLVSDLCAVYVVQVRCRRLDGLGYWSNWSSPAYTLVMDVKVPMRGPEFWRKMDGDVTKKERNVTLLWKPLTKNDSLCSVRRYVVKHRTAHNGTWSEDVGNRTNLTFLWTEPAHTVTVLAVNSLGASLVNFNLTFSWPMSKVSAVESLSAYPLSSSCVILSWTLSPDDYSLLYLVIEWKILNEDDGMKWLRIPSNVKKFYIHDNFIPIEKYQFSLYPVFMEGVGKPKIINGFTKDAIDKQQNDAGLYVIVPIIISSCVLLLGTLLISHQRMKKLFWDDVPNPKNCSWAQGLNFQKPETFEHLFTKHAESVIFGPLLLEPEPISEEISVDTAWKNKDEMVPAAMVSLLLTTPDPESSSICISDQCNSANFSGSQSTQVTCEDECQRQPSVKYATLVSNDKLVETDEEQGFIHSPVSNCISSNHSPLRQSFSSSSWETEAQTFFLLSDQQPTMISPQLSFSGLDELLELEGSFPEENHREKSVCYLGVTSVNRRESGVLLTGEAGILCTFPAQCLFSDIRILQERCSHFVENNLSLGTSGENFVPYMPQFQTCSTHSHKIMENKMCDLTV

In the assay the target is SEL1L (human (endogenous in HEK293T)) (UniProt Q9UBV2). Put plainly: co-IP; immunoprecipitation of SEL1L from lysates of mLepRb-transfected HEK293T (WT and HRD1-/-), Western blot.

These are yes or no findings as the source states them, for the method shown. In cells and extracts the contact can be indirect. Some entries that bind do so weakly or less than the wild type.

For “long isoform of mouse leptin receptor (mLepRb), 3xFLAG-tagged (from UniProt P48356 22-1162)”, the binding result is reported as “binds”.
